# Measurements from PubChem BioAssay AID1508600 (Functional Genomics Laboratory (NCATS/FGL), 2020).
# In all, about 53,000 sequences went through this assay and about 3,700 (7%) were called active.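 How the source made its calls: active means gene knockdowns whose robust z-score for IL-1 alpha signal is at least 2 or at most -2, so actives lie on both sides; inactive means the rest.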 The list shows a part of the results.
# Assay: Components of the Cytosolic LPS Sensing Pathway: Gene Identification via Genome-wide siRNA Screen
# Conditions: RAW264.7 macrophages, IL-1a HTRF, actives lie on both sides, screened at 100 nM (by protocol), cells primed 5 h with Pam3CSK4 first
# From the text: Non-canonical inflammasome activation by cytosolic LPS is a critical component of the host response to Gram-negative bacterial infection, however we lack a comprehensive understanding of the cellular processes that control this pathway. Here we describe a genome-wide siRNA screen to identify genes regulating the mouse macrophage IL-1 alpha response to cytosolic LPS.
# RAW264.7 cells were maintained in complete DMEM media, comprising DMEM with 4.5 g/L glucose, 10% FBS (Gemini Bio-Products, West Sacramento, CA), 2 mM Glutamine (Lonza) and 20 mM HEPES (Lonza), hereafter complete DMEM.
# The RNAi screen was conducted in 384-well format using the Ambion Silencer Mouse Genome siRNA Library (#4391425), which consists of three unique, nonoverlapping, nonpooled siRNAs for each of 17,000 gene targets. siRNA reagents ([…]) were stamped into 384-well white flat-bottom microplates (Corning, 3570) using a Velocity11 VPrep liquid handling system (Agilent) integrated into a BioCel robotic platform (Agilent) in columns 1-22, leaving columns 23-24 empty for negative (Ambion, Negative control #1) and positive (mouse Casp4) controls, respectively. The median value of each plate's negative control column was used to normalize sample wells, and the positive control was used to assess transfection efficiency and assay performance.
# Lipofectamine RNAiMAX Transfection Reagent ([…]; Invitrogen) was added in […] serum-free, antibiotic-free media to plate wells using a Thermo Scientific Matrix WellMate and Microplate Stacker. Plates were incubated for 45 min at room temperature to allow for the sufficient formation of siRNA-lipid complexes. Cells were seeded at a density of 1x10^4 cells per well in 20 microL media containing 20% (vol/vol) FBS without antibiotics. The final concentration of siRNA in each well was 100 nM. Cells were cultured for 48h at 37 degrees C in 5% CO2 before addition of […] of TLR ligand Pam3CSK4 for 5 hours. The medium was then removed, replaced with […] growth media and cell were transfected with […] of LipidA and TransIT-TKO (Mirus) for 24 hour. At the end of the LipidA treatment, […] of supernatant was transferred to a 384 Greiner Bio-one non-binding low volume plate and […] of IL-1a HTRF reagent (Cisbio, 62MIL1APEH) was added and incubated at room temperature overnight. The plates were read on an EnVision plate reader (PerkinElmer). Cell viability was measured by adding 20ul Cell Titer Glo to the original plate and running a luminescence read on the EnVision. The quantified IL-1a signal for each siRNA gene-targeted well was divided by the median of the negative control wells and multiplied by 100 to achieve a negative control normalized value for each well/siRNA. This normalized value was then used to generate a robust z-score by first taking the log of each value and then by subtracting the median and dividing by the […].
row,Sequence,z-score
1,GGUCUUUGAAUGGAACAAUTT against Aldh7a1,inactive: -1.04
2,GGUGCAGACCUCUGACAAATT against Pdlim7,inactive: 1.18
3,GCGUAAAACUUCAAGAGCUTT against Ccdc120,inactive: 0.268
4,GGAGUUCGCACAGAAAUUCTT against Dhdh,inactive: -0.619
5,GCACCAUGAAUGGAGAUGATT against Prl2c5,active: -2.56
6,GGAAUUCAGUGCCUUAAAATT against Pgf,inactive: -0.294
7,GGUUGUGAACAGUCCACCCTT against Ski,inactive: 0.461
8,GAGAUGCCAUGACAAUGGGTT against 4931422A03Rik,inactive: -1.11
9,GGACAGGUGAAGAUAAGUATT against Mug2,inactive: -0.704
10,GCACAACCCUAGGCUAUCCTT against Tssk5,inactive: 0.953
11,GGAGUCUCUGUCAUGUGAUTT against Tlr2,inactive: -0.33
12,GGCACACACAUCAAAAGGATT against A530021J07Rik,active: -2.63
13,GCAUCUAUGGUGUUUCCUGTT against 9230106D20Rik,inactive: -0.136
14,GGAUAUCAUCAUGUCUUUCTT against Otop1,inactive: 1.29
15,CGGACACACAGUUGAUCCGTT against Cct6b,active: -2.15
16,GGUGGCCCAGUCUAAAGAATT against R74862,inactive: 0.872
17,GGAGAAGCAUAAAACAGUUTT against Ikzf5,inactive: -0.547
18,CCAAAUAAUUUCAGGGAAUTT against Vamp1,inactive: -0.467
19,GGCCUUUUCUCAAACAAACTT against 9330154K18Rik,inactive: -1.93
20,GGCCUUUACAUCAAUAUCATT against Zfp879,inactive: -0.0241
21,GGUAUAAACUAUUUGUACCTT against Gnb4,inactive: 0.221
22,GGUUAUUUGGUCCUCGUAGTT against Ccs,inactive: -0.707
23,GGCAUGAGAACUAGUCUGCTT against Duox2,inactive: -0.843

# In a second layout: results already given
row	Sequence	z-score
8	GAGAUGCCAUGACAAUGGGTT against 4931422A03Rik	inactive: -1.11
9	GGACAGGUGAAGAUAAGUATT against Mug2	inactive: -0.704
10	GCACAACCCUAGGCUAUCCTT against Tssk5	inactive: 0.953
11	GGAGUCUCUGUCAUGUGAUTT against Tlr2	inactive: -0.33

# Later entries.

row,Sequence,z-score
1,CCACAACCCUUGAGGAUGUTT against Samd11,inactive: -0.142
2,GGCUGUAUCCUGACAGCAATT against Olfr231,inactive: 0.213
3,CCUUCCUACAACAAGUGUGTT against Galnt1,active: 2.02
4,GCAUUGAAGAUCGAACACGTT against Kdm2a,inactive: 0.536
5,GGCAUAGGAAACACCAAGATT against Xdh,inactive: -0.307
6,GGUUUUAUCUCUUGUGCCCTT against Myl10,inactive: -0.565
7,CGAACUUCUUAAUAAACAGTT against Slc7a2,inactive: -0.0413
8,GGAGUUCAUUCUGAAUCAGTT against Drosha,inactive: -0.548
9,GGGACAUUUCCAUCCUUUUTT against Prdx6b,inactive: -1.28
10,GGAGUGUUUCCUGUCUCCUTT against Rad54l,inactive: -0.975
11,GGGCAUACAUGAUCCUCCUTT against Gpr39,inactive: 0.331
12,GGAUUGCUCCGAGAACAUCTT against Spsb2,inactive: -1.31
13,GGAUUGCUUCACCACAUGUTT against Fes,active: 2.44
14,GGAAAGUACCCUAGGAGUUTT against 4921509C19Rik,inactive: -1.6
15,GGCCCUAGCACUUUUUGUCTT against Ush2a,inactive: -0.101
16,GCUCUACAUGAAAACACUGTT against Gpat4,inactive: -0.28
17,CCUUAGCUUACCUAGUGGUTT against Tssc4,inactive: -0.653
18,GGUCGGUUCUCUUCACUGATT against 1700025G04Rik,inactive: -0.827
19,CCCAUCAAAAGAAUCCACATT against Snrnp70,active: -2.51
20,GGGAACAAGGAACUCAAAGTT against Cadm1,inactive: 1.69
21,GGUCGUGCGAUCCACAGAUTT against Vangl2,inactive: -0.44
22,GGAAAACUCUCUGCAUUAUTT against Stx7,inactive: -0.254
23,GGACAAUUAUGAGAUGCACTT against Med22,inactive: -0.861

row,Sequence,z-score
1,GGGCUUCUGAAGAAGAUGATT against Cdc25b,inactive: -1.21
2,GGCAAUUAAUUGACAGUUATT against Myf5,inactive: 1.66
3,GCAAGGAGUUUAUGUGAGUTT against Olfr170,inactive: 0.297
4,CCCUCCGUGUUUUUAAGAUTT against Tbl2,inactive: 0.176
5,GGAGUUUGUGCAGUUUGUGTT against Nfix,inactive: -0.414
6,GGCAGGAUAUAACCAUCCUTT against Zscan29,inactive: -1.79
7,CCAUAUGGUCAUUAUACCUTT against Ttc19,inactive: -0.742
8,GGAUUUUCACAUUGCAUCUTT against Dmrtc1a,inactive: 1.49
9,GGAUGAAAAUCUCUGUCCUTT against Trpa1,inactive: 0.604
10,GGAAGUUCGUGUGAAAGUUTT against Uhrf2,inactive: 1.43
11,GCCCAUCACAAAUAAACAATT against B230340J04Rik,inactive: -1.17
12,GCUCGGCUUUAGAGACCUATT against Cox19,inactive: 0.379
13,GGAACAAAGAGGUUAAAGGTT against Olfr1448,inactive: 0.513
14,GGAUCUGCCUACACCUACATT against Slc7a14,inactive: 0.442
15,GGUUAUUGAUUUGGUGAAGTT against 4930550L24Rik,inactive: 1.03
16,GGUAUUCUUUGAUAAGAUCTT against Ephb1,inactive: -0.0305
17,GGAGUGAUGUCCAUACUGGTT against Leap2,active: -2.57
18,CCUCUGCUACUCUUAUUGUTT against Ttn,inactive: -0.523
19,GGCAAGCACAAUGAUCAUUTT against Trappc11,active: -2.36
20,GGUUCUUUUUGACGGUGGUTT against Rpl14,inactive: 0.368
21,GGAUCAGCAACAGUCUCCATT against 1700029M20Rik,active: -2.01
